Percent effect of library compounds

Source: ChEMBL document CHEMBL3988442, “University of Dundee, Small-Polar-MMV Screening Library” (2021).

Mtb cholesterol medium: 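Phenotypic screen: M. tuberculosis growth, cholesterol and DPPC medium, 4 days; the read-out is not stated. Tested at 50 µM. Direction is inferred from retests: higher values go with more growth inhibition. Size under these conditions: about 69,000 compounds, about 370 of them at 50% or above in at least one test.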
Mtb glucose medium: 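Phenotypic screen: M. tuberculosis growth, glucose 7H9 medium, 3 days; the read-out is not stated. Compounds at 50 µM. The record gives no direction; compounds that gave an IC50 in retests scored well above the rest, so higher reads as more growth inhibition. Size under these conditions: about 69,000 compounds, about 760 of them at 50% or above in at least one test.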

Results are given as percent effect. The record does not define 0% and 100%; most values in the screen are far below 50% and negative numbers occur (in some assays of this library far below -100). The compounds are a random part of those screened. Two or more numbers in one place are separate tests of the same structure; such repeats can differ widely.

{"compound": "COC(=O)C1CN(Cc2ccccc2C(C)(C)C#N)CCO1", "stereo": "centres unmarked", "Mtb cholesterol medium": 26.96, "Mtb glucose medium": 3.987}
{"compound": "CCn1cc(CCC(=O)NCc2csc(C3CC3)n2)c(C)n1", "Mtb cholesterol medium": -11.12, "Mtb glucose medium": "-9.936 and 2.346"}
{"compound": "OCCN1CCN(Cc2coc(-c3ccccc3Cl)n2)CC1", "Mtb cholesterol medium": -13.1, "Mtb glucose medium": "4.832 and 1.484"}
{"compound": "COc1cccc2cc(CNC(=O)N3CCCC(O)C3)oc12", "stereo": "centres unmarked", "Mtb cholesterol medium": 12.85, "Mtb glucose medium": 25.93}
{"compound": "Cc1nc(C)c(C(=O)NCCn2nc3ccccn3c2=O)s1", "Mtb cholesterol medium": -13.77, "Mtb glucose medium": -4.023}
{"compound": "CC(C)(CN)NS(=O)(=O)c1cccc(F)c1F.Cl", "Mtb cholesterol medium": 5.384, "Mtb glucose medium": "0.4208 and 8.67"}
{"compound": "COCCN1CCOCC12CCN(C(=O)c1cccnc1)CC2.O=C(O)C(F)(F)F", "Mtb cholesterol medium": 1.757, "Mtb glucose medium": 33.44}
{"compound": "CC1CCN(C)c2ccccc2N1C(=O)c1ccc(=O)n(C)c1", "stereo": "centres unmarked", "Mtb cholesterol medium": -6.103, "Mtb glucose medium": 37.28}
{"compound": "COCCn1cc(NC(=O)N(CCC(N)=O)Cc2ccccc2)cn1", "Mtb cholesterol medium": -10.74, "Mtb glucose medium": "-5.853 and -16.18"}
{"compound": "[H][C@]12CCN(S(=O)(=O)c3ccc(C)cc3)[C@@]1([H])[C@@H](NC(=O)c1ccncc1)C2", "Mtb cholesterol medium": "9.644 and 3.513", "Mtb glucose medium": 0.1854}
{"compound": "COCCN1CCC(CNC(=O)c2ccnc(-n3ccnc3)c2)CC1", "Mtb cholesterol medium": -28.14, "Mtb glucose medium": -11.88}
{"compound": "CCC(=O)Nc1ccc(C(C)NC(=O)COC)cc1", "stereo": "centres unmarked", "Mtb cholesterol medium": -9.308, "Mtb glucose medium": -17.84}
{"compound": "Cc1nn(C)c(N(C)C)c1CNCc1ccccc1Cn1cccn1", "Mtb cholesterol medium": -6.215, "Mtb glucose medium": 2.563}
{"compound": "CC(C)c1cc(C(F)(F)F)n2nc(CCC(=O)O)nc2n1", "Mtb cholesterol medium": -10.89, "Mtb glucose medium": -4.754}
{"compound": "O=c1ccc(-c2ccccc2F)nn1CCN1CCCS1(=O)=O", "Mtb cholesterol medium": 14.7, "Mtb glucose medium": 29.11}
{"compound": "Cc1cc(CN2CCN(C(=O)C3(C#N)CCCCC3)CC2)on1", "Mtb cholesterol medium": 2.329, "Mtb glucose medium": -21.13}
{"compound": "CCn1cnnc1CNC(=O)NC(C)c1ccccn1", "stereo": "centres unmarked", "Mtb cholesterol medium": -15.02, "Mtb glucose medium": -7.086}
{"compound": "CCC(=O)N1CCc2nc(N3CCOCC3)nc(N(C)C)c2CC1", "Mtb cholesterol medium": -21.42, "Mtb glucose medium": "-7.001 and -43.18"}
{"compound": "Cc1nc(C)n(CC2CCCCN2Cc2nc(-c3ccoc3)no2)n1", "stereo": "centres unmarked", "Mtb cholesterol medium": -10.85, "Mtb glucose medium": 23.39}
{"compound": "CCc1cccc(NC(=O)CCN2CC=C(c3cnn(C)c3)CC2)c1", "Mtb cholesterol medium": -6.172, "Mtb glucose medium": 0.1836}
{"compound": "CC(NC(=O)N1CCCN(Cc2cccs2)CC1)c1cccnc1", "stereo": "centres unmarked", "Mtb cholesterol medium": -1.748, "Mtb glucose medium": 2.974}
{"compound": "CCN1C(=O)C(c2ccccc2)CC12CCN(S(C)(=O)=O)CC2", "stereo": "centres unmarked", "Mtb cholesterol medium": 26.19, "Mtb glucose medium": -9.266}
{"compound": "CCS(=O)(=O)N1CC(c2nc(-c3cccs3)no2)C1", "Mtb cholesterol medium": 24.27, "Mtb glucose medium": -4.805}
{"compound": "COC(=O)COc1cc(NCc2c(C)noc2C)c(Cl)cc1C", "Mtb cholesterol medium": 111.6, "Mtb glucose medium": 106.6}
{"compound": "CCn1cc2c(n1)C(COCC1CC1)CN(C(=O)c1cnoc1C)C2", "stereo": "centres unmarked", "Mtb cholesterol medium": 20.95, "Mtb glucose medium": "16.51 and 1.388"}
{"compound": "[H][C@@]12CN(Cc3cccc(Cl)c3)CC[C@]1([H])N(C(C)=O)C[C@H]2c1ccsc1", "Mtb cholesterol medium": -5.525, "Mtb glucose medium": 33.79}
{"compound": "CCN(C)C(=O)c1ccc(N(C)Cc2cc(-c3ccncc3)no2)nc1", "Mtb cholesterol medium": 11.01, "Mtb glucose medium": -10.31}
{"compound": "CS(=O)(=O)NCCC(=O)Nc1ccccc1N1CCc2ccccc21", "Mtb cholesterol medium": -5.843, "Mtb glucose medium": "21.73 and 9.279"}
{"compound": "Cc1cccc(SC2CCN(Cc3nc(CC4CC4)no3)CC2)c1", "Mtb cholesterol medium": 21.23, "Mtb glucose medium": 11.82}
{"compound": "CN1CC(=O)N(c2cccnc2)CC12CCN(C(=O)C1CCCCC1)C2.O=C(O)C(F)(F)F.O=C(O)C(F)(F)F", "stereo": "centres unmarked", "Mtb cholesterol medium": -36.33, "Mtb glucose medium": -59.8}
{"compound": "COc1ccc(Cl)cc1NC(=O)N(C)CC(O)COCCOC(C)C", "stereo": "centres unmarked", "Mtb cholesterol medium": 0.2214, "Mtb glucose medium": -12.91}
{"compound": "O=C(O)C(F)(F)F.[H][C@]12CCCN(Cc3cccs3)[C@@]1([H])CN(S(C)(=O)=O)C2", "Mtb cholesterol medium": -11.89, "Mtb glucose medium": "-11.82 and -31.31"}
{"compound": "O=C(O)C(F)(F)F.O=C(O)C(F)(F)F.O=C(O)C(F)(F)F.[H][C@@]12CN(Cc3ccoc3)C[C@]1([H])OCCN2CCN1CCCC1", "Mtb cholesterol medium": 5.251, "Mtb glucose medium": "2.86 and -13.12"}
{"compound": "Cc1ccc2cc(C(=O)N3CCCCC3c3nc[nH]n3)ccc2n1", "stereo": "centres unmarked", "Mtb cholesterol medium": 4.184, "Mtb glucose medium": -35.86}
{"compound": "O=C(NCCn1ccnc1)N1CCCC1c1ccncc1", "stereo": "centres unmarked", "Mtb cholesterol medium": -0.06247, "Mtb glucose medium": 12.24}
{"compound": "CCC(=O)Nc1nnc(CCOc2ccc(OC)cc2)s1", "Mtb cholesterol medium": -6.599, "Mtb glucose medium": -7.187}
{"compound": "Cc1nc(C)c(Cn2ccnc2-c2cc(CN(C)C)cs2)s1", "Mtb cholesterol medium": 1.312, "Mtb glucose medium": -3.317}
{"compound": "Nc1nnc(CCNc2ncnc3c2CCN(C(=O)C2CC2)C3)s1", "Mtb cholesterol medium": 12.77, "Mtb glucose medium": 24.16}

Repeated from the top, 3 entries:

| Compound | Mtb cholesterol medium | Mtb glucose medium |
|---|---|---|
| `COC(=O)C1CN(Cc2ccccc2C(C)(C)C#N)CCO1` (centres unmarked) | 26.96% | 3.987% |
| `CCn1cc(CCC(=O)NCc2csc(C3CC3)n2)c(C)n1` | -11.12% | -9.936% and 2.346% |
| `OCCN1CCN(Cc2coc(-c3ccccc3Cl)n2)CC1` | -13.1% | 4.832% and 1.484% |